In PubChem BioAssay AID624297 (National Center for Advancing Translational Sciences (NCATS), 2012):
About 6,200 (1.8%) of roughly 340,000 compounds were called active. This list was built around the results that the source calls inconclusive (neither active nor inactive); the mix of calls is not that of the screen. Calls come from the whole dose curve; as a rule, active = well fitted activation curve with a large enough effect; inconclusive = small, poorly fitted or top-dose-only effect; inactive = no such curve, though single readings can be large or run the other way. Potencies beside an inconclusive call are fits to weak or partial responses and may not hold up.

Experiment: A quantitative high throughput screen for small molecules that induce DNA re-replication in SW480 colon adenocarcinoma cells. For re-replication activation: % of control where 0% means no effect. Note: nearly all actives have a fitted effect of over 55% in size.
Settings: Hoechst DNA content imaging, 48 h; re-replication activation: at 46.1 µM (top of the series) unless noted
Procedure, shortened: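 Readout is total intensity of Hoechst-stained nuclei, excited at 405 nm and collected at 500-530 nm. Compound treatment lasted 48 hr at 37 C in 5% CO2 before staining.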
Potency is the fitted concentration of half-maximal effect.

Row | SMILES | re-replication activation | Potency
1 | CCCc1n(CC)c2ccccc2[n+]1CC(O)COC1CCCCC1 (configuration not stated) | inactive: 12.8% | 
2 | Nc1nc(N)c(-c2ccccc2)s1 | inactive: -1.45% | 
3 | O=C(N/N=C/c1sc(N2CCCCC2)nc1-c1cccs1)C1CC1 |  | inconclusive: 29.1 µM [activator, single point]
4 | Cc1ccccc1CNS(=O)(=O)c1c(C)[nH]c(C)c1C(=O)N1CCCCC1 |  | inconclusive: 0.164 µM [activator, partial curve, poor fit]
5 | O=C(O)CCC(=O)Nc1ccc(Br)cc1C(=O)c1ccc(Cl)cc1 |  | inconclusive: 29.1 µM [activator, single point]
6 | CCOC(=O)N1CCc2c(sc3c2c(=O)n(Cc2ccccc2)c(=O)n3CC(=O)NCC2CCCO2)C1 (configuration not stated) | inactive: -7.39% | 
7 | O=C(NC1CCCCC1)C1CC(=O)N(Cc2ccccc2)C1 (configuration not stated) | inactive: -20.7% | 
8 | COc1ccc(C2=NN(Cc3ccccc3)C3C(=O)NC(=O)C23)cc1 (configuration not stated) | inactive: 9.61% [at 1.84 µM] | 
9 | CSc1cccc(NC(=S)NC(=O)c2cccnc2)c1 |  | inconclusive: 32.6 µM [activator, partial curve, poor fit]
10 | COc1ccc(/C=N/NC(=O)NC23CC4CC(CC(C4)C2)C3)c(OC)c1 |  | inconclusive: 29.1 µM [activator, single point]
11 | COC(=O)CNC(c1ccccc1Cl)c1cc(Br)ccc1NS(=O)(=O)c1ccc(C)cc1 (configuration not stated) | inactive: 3.17% | 
12 | COc1ccc(NC(=O)CN(C)C(=O)C2(c3ccccc3)CCCC2)cc1 | inactive: -0.397% | 
13 | O=C(c1ccc(OC2CCN(CCc3ccccc3)CC2)cc1)N1CCCC(CCCO)C1 (configuration not stated) |  | inconclusive: 29.1 µM [activator, single point]
14 | O=C(COC(=O)/C=C/c1cccs1)Nc1cccc(S(=O)(=O)N2CCCC2)c1 |  | inconclusive: 4.61 µM [activator, partial curve, poor fit]
15 | OCC1(Cc2ccccc2Cl)CCN(C/C=C/c2ccccc2)CC1 |  | inconclusive: 29.1 µM [activator, partial curve, poor fit]
16 | CN(C)/C(=N\S(=O)(=O)c1ccc(Br)cc1)c1ccccc1 |  | inconclusive: 29.1 µM [activator, single point]
17 | CCOc1ccc(NS(=O)(=O)c2cc(Cl)ccc2OC)cc1 | inactive: -0.435% | 
18 | CCCCCCCC[n+]1cccc2c3ccccc3ccc21 |  | inconclusive: 29.1 µM [activator, single point]
19 | O=[N+]([O-])c1cccc(C2NCC(c3ccccc3Cl)c3c2[nH]c2ccccc32)c1 (configuration not stated) |  | inconclusive: 18.4 µM [activator, partial curve, poor fit]
20 | CCOc1ncccc1C(=O)Nc1nc(SC)ns1 |  | inconclusive: 2.59 µM [activator, partial curve, poor fit]
21 | CCC(C(=O)NC1CCCC1)N(C(=O)c1snc(C(N)=O)c1N)c1ccc(OC)c(OC)c1 (configuration not stated) | inactive: -3.33% | 
22 | COc1ccc([C@H]2[C@H](C(=O)OC(C)(C)C)N3N=Cc4ccccc4C3C23C(=O)c2ccccc2C3=O)c(OC)c1 (some centres not stated) |  | inconclusive: 25.9 µM [activator, partial curve, poor fit]
23 | S=C(Nc1ccc(Cl)cc1)NC1CC2CCCC(C1)N2C1CCCC1 (configuration not stated) |  | active: 23.1 µM

Of the compounds above, 3 have a thiophene ring, fused or not.
Row | SMILES | re-replication activation | Potency
3 | O=C(N/N=C/c1sc(N2CCCCC2)nc1-c1cccs1)C1CC1 |  | inconclusive: 29.1 µM [activator, single point]
6 | CCOC(=O)N1CCc2c(sc3c2c(=O)n(Cc2ccccc2)c(=O)n3CC(=O)NCC2CCCO2)C1 (configuration not stated) | inactive: -7.39% | 
14 | O=C(COC(=O)/C=C/c1cccs1)Nc1cccc(S(=O)(=O)N2CCCC2)c1 |  | inconclusive: 4.61 µM [activator, partial curve, poor fit]

Following part.

Row | SMILES | re-replication activation | Potency
24 | Cn1ccnc1SCC(=O)Nc1cccc(C#N)c1 |  | inconclusive: 18.4 µM [activator, single point]
25 | Cc1ccccc1NC1=C(Cl)C(=O)OC1OC(=O)c1ccccc1C (configuration not stated) |  | inconclusive: 29.1 µM [activator, single point]
26 | CCC[C@H]1NC(=O)[C@H](C)N(C)C(=O)C(C)(C)C(=O)C(C)NC(=O)[C@H](Cc2ccc(OC)cc2)N(C)C(=O)[C@H](C(C)C)N(C)C(=O)CNC(=O)[C@H](CC(C)C)N(C)C(=O)CNC(=O)[C@H]([C@@H](C)CC)OC(=O)[C@H]1C (some centres not stated) |  | inconclusive: 0.0146 µM [activator, full curve]
27 | Cc1ccc(S(=O)(=O)C(C#N)c2nc3ccccc3nc2N2CC(C)OC(C)C2)cc1C (configuration not stated) |  | inconclusive: 23.1 µM [activator, single point]
28 | CCc1nn2c(=O)cc(COc3ccc(NC(=O)c4ccco4)cc3)nc2s1 |  | inconclusive: 1.3 µM [activator, full curve, poor fit]
29 | Clc1ccccc1CN(Cc1ccccc1)c1ncnc2nc[nH]c12 | inactive: -1.78% | 
30 | COc1ccc(/C=N/Nc2nnc(C)n2N)cc1OC |  | inconclusive: 16.4 µM [activator, partial curve, poor fit]
31 | C#CCNC(=O)C1=C[C@@H](c2ccccc2)[C@H](CCCO)[C@@H](OCC)O1 |  | active: 23.1 µM
32 | Cc1cccc(C(=O)Nc2sc3c(c2C(=O)O)CCCC3)c1 | inactive: 3.01% | 
33 | O=C(N/N=C/c1cn(-c2cccs2)nc1-c1ccccc1)c1ccccc1Cl | inactive: -1.91% | 
34 | Cc1ccccc1NC(=S)NCCSc1ccc(Cl)cc1 | inactive: -1.08% | 
35 | O=C(CNC(=O)c1ccccc1)N/N=C/c1ccc([N+](=O)[O-])s1 |  | inconclusive: 25.9 µM [activator, single point]
36 | Cc1nc2nc(C)c(CCC(=O)N3CCN(c4ccccn4)CC3)c(C)n2n1 | inactive: -4.31% | 
37 | O=C(CN1CCCC1)Nc1ccc(Oc2ccc(NC(=O)CN3CCCC3)cc2)cc1 |  | inconclusive: 25.9 µM [activator, single point]
38 | CC1Cn2c(nnc2C23CC4CC(CC(C4)C2)C3)S1 (configuration not stated) |  | inconclusive: 20.6 µM [activator, single point]
39 | Cc1ccc(NC(=O)c2ccc3c(=O)n4c(nc3c2)CCC4)cc1F |  | inconclusive: 6.51 µM [activator, single point]
40 | Cc1ccccc1NCC(=O)c1ccc(Br)cc1 |  | inconclusive: 29.1 µM [activator, single point]
41 | CC12CCC(=O)N1c1c(sc3nc(N4CCOCC4)c4c(c13)CCCC4)C(=O)N2 (configuration not stated) |  | inconclusive: 29.1 µM [activator, single point]
42 | O=[N+]([O-])c1ccc(NC(=S)NCCc2ccc(F)cc2)cc1 |  | inconclusive: 29.1 µM [activator, single point]
43 | CCc1ccc(CN2CCC(C(=O)Nc3ccc(Oc4ccccc4)nc3)CC2)o1 | inactive: -6.04% | 
44 | COc1ccccc1OCCNC(=O)C1CC(=O)N(c2ccccc2OC)C1 (configuration not stated) | inactive: 7.17% | 
45 | Cc1cc(NC(=O)CCc2ccccc2)c([N+](=O)[O-])cc1C |  | inconclusive: 20.6 µM [activator, single point]
46 | Cc1cc(O)c(C)c(O)c1/C=N/NC(=O)c1cccnc1 |  | inconclusive: 3.26 µM [activator, full curve]

Row | SMILES | re-replication activation | Potency
47 | CC(C)c1cccc(C(C)C)c1NC(=O)COC(=O)C1CCC1 |  | inconclusive: 29.1 µM [activator, partial curve, poor fit]
48 | Cc1cc(-n2c(SCc3ccccc3F)nc3n[nH]c(C)c3c2=N)ccc1Cl |  | inconclusive: 29.1 µM [activator, single point]
49 | COc1cc(C(=O)NCc2nnc(SCC(=O)Nc3nc4ccc(C)cc4s3)o2)cc(OC)c1OC |  | inconclusive: 5.8 µM [activator, partial curve, poor fit]
50 | O=C(c1ccccc1)c1ccc(OCCCCN2CCCCC2)cc1 | inactive: -9.03% | 
51 | CCCCOc1ccc(/C=N/NC(=S)Nc2cccc(C)c2C)cc1 | inactive: 5.22% | 
52 | O=c1c2ccccc2c(/C=N/c2n[nH]c(CCCO)n2)c(O)n1-c1ccccc1Cl |  | inconclusive: 0.231 µM [activator, full curve, poor fit]
53 | Cc1ccc(N2C3=C(C(=O)CC(C)(C)C3)C(c3cn(C)nc3C)C3=C2CC(C)(C)CC3=O)cc1 |  | inconclusive: 23.1 µM [activator, single point]
54 | C=CC[C@@H](CC(=O)OC(C)(C)C)C(=O)OC[C@H]1CCCN1C(=O)[C@@H](CC=C)CC(=O)N[C@H](CO)Cc1ccccc1 |  | inconclusive: 1.46 µM [activator, full curve, poor fit]
55 | O=C(c1cc(-c2cccnc2)nc2ccccc12)N1CCN(S(=O)(=O)c2ccc(Cl)s2)CC1 | inactive: 2.14% | 
56 | CCCNC(=O)Cc1c(O)c2ccccc2[nH]c1=O |  | inconclusive: 0.82 µM [activator, full curve]
57 | CC(C)(C)OC(=O)C[C@H]1C/C=C\C[C@@H](CC(=O)N(CCO)Cc2ccccc2)C(=O)N[C@@H](c2ccccc2)COC1=O | inactive: 18.4% | 
58 | CN1CCc2c(sc(NC(=O)c3ccc(S(=O)(=O)N4CCCC4)cc3)c2C(N)=O)C1 | inactive: 1.17% | 
59 | OCCC1CN(Cc2cccc3c2OCO3)CCN1C1CCCCC1 (configuration not stated) |  | inconclusive: 14.6 µM [activator, single point]
60 | Cc1ccc(CNC(=O)C2CCCN(S(=O)(=O)c3c(C)n[nH]c3C)C2)cc1 (configuration not stated) |  | inconclusive: 1.03 µM [activator, full curve]
61 | CSCC[C@H](NC(=O)[C@@H]1CSC2c3ccccc3C(=O)N21)C(=O)NCc1ccco1 (some centres not stated) |  | inconclusive: 29.1 µM [activator, single point]
62 | O=C(CN1C(=O)NC2(CCCC2)C1=O)N1CCN(c2ccccc2O)CC1 | inactive: -11.9% | 
63 | O=[N+]([O-])c1ccc(C2=NN(CCO)C(=Nc3ccc(OC(F)(F)F)cc3)SC2)cc1 |  | inconclusive: 18.4 µM [activator, single point]
64 | COc1ccc(C)cc1S(=O)(=O)N1CCCC(C(=O)N2CCN(c3ccccc3F)CC2)C1 (configuration not stated) |  | inconclusive: 20.6 µM [activator, partial curve, poor fit]
65 | COc1ccccc1NS(=O)(=O)c1cc(NC(=O)Nc2ccccc2)ccc1N1CCCCC1 |  | inactive
66 | Cc1c(C(=O)NC(C)CCc2ccccc2)cccc1[N+](=O)[O-] (configuration not stated) | inactive: 2.79% | 
67 | COc1ccc(C(C)=O)cc1COC(=O)CCC(=O)c1cccs1 | inactive: -11.5% | 
